Measurements from patent US8658659B2, “Substituted oxazole derivatives and their use as tyrosine kinase inhibitors” (AB Science, priority 2005, dated 2014).
Some of these results come from one statement about several compounds together.

Amino acid sequences for entries named in this document (tags omitted). A change or cut given only in a name is not applied to a line headed by its entry. Chains listed by the source or under a name are the forms on record and can include a tag or linker.
UniProt P05532, with tags, fused parts or gaps DEL551-559: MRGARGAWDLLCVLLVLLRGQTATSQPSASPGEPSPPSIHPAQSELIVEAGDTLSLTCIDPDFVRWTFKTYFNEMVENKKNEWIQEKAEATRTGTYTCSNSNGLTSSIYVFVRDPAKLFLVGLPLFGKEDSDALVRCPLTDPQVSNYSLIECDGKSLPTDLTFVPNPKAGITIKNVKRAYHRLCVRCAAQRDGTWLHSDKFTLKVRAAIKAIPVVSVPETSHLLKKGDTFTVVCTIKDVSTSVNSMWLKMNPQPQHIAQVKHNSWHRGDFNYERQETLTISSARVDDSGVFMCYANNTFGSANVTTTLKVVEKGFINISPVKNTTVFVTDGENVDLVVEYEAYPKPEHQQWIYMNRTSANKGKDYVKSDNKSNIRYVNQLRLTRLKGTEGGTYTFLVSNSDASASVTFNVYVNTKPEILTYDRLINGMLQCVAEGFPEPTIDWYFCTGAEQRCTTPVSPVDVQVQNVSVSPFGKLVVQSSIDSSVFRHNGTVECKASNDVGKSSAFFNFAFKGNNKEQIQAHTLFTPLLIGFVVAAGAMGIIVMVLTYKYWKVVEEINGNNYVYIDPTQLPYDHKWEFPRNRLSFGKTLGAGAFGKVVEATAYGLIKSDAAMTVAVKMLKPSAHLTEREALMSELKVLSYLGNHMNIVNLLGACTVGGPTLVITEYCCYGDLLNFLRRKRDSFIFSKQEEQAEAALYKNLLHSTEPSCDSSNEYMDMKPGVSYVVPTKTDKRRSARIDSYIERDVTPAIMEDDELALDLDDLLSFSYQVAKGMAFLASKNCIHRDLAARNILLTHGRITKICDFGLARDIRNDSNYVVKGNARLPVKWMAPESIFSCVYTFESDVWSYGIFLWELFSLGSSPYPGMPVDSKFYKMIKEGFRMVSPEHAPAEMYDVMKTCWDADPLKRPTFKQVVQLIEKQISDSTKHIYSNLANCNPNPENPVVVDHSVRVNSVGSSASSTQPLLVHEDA

Tests used:
c-Kit D816V = molecular target: T1, c-Kit D816V (Homo sapiens, UniProt P10721, D816V); assay: In vitro TK inhibition, proliferation assay ([3H] thymidine incorporation), c-Kit D816V; type: cell-based; conditions: Ba/F3 hkitD816V
T1 construct: expressed in transfected cells; host or cells: Ba/F3 murine IL-3 dependent proB lymphoid cells

c-Kit JMΔ27 = c-Kit JMΔ27 (Mus musculus, UniProt P05532); assay: In vitro TK inhibition, proliferation assay ([3H] thymidine incorporation), c-Kit JMΔ27; type: cell-based, murine; conditions: Ba/F3 mkitΔ27 (juxtamembrane deletion)
c-Kit WT = c-Kit WT (UniProt P10721); assay: In vitro TK inhibition, proliferation assay ([3H] thymidine incorporation), c-Kit WT; type: cell-based; conditions: Ba/F3 murine kit and human kit cells

| Compound | IC50 (c-Kit D816V) [nM] | IC50 (c-Kit JMΔ27) [nM] | IC50 (c-Kit WT) [nM] |
| --- | --- | --- | --- |
| Cc1ccc(NS(=O)(=O)Cc2ccccc2)cc1Nc1ncc(-c2ccncc2)o1 [Compound 001, N-[4-Methyl-3-(5-pyridin-4-yl-oxazol-2-ylamino)-phenyl]-C-phenyl-methane sulfonamide] | ≤ 1000 | < 1000 | < 1000 |
| Cc1ccc(Nc2nc3ccccc3o2)cc1Nc1ncc(-c2ccc(C#N)cc2)o1 [Compound 002, 4-{2-[5-(Benzooxazol-2-ylamino)-2-methyl-phenylamino]-oxazol-5-yl}-benzonitrile] | ≤ 1000 |  | < 1000 |
| Cc1ccc(Nc2nc3ccccc3o2)cc1Nc1ncc(-c2cccnc2)o1 [Compound 004, N1-Benzooxazol-2-yl-4-methyl-N3-(5-pyridin-3-yl-oxazol-2-yl)-benzene-1,3-diamine] |  |  | < 1000 |
| Cc1ccc(N2CCN(c3cccc(F)c3)C2=O)cc1Nc1ncc(-c2ccc(C#N)cc2)o1 [Compound 011, 4-(2-{5-[3-(3-Fluoro-phenyl)-2-oxo-imidazolidin-1-yl]-2-methyl-phenylamino}-oxazol-5-yl)-benzonitrile] | ≤ 1000 |  | < 1000 |
| Cc1ccc(C(=O)CCc2ccccc2)cc1Nc1ncc(-c2ccncc2)o1 [Compound 017, 1-[4-Methyl-3-(5-pyridin-4-yl-oxazol-2-ylamino)-phenyl]-3-phenyl-propan-1-one] | ≤ 1000 | < 1000 | < 1000 |
| Cc1ccc(C(=O)CCc2cccc(F)c2)cc1Nc1ncc(-c2ccc(C#N)cc2)o1 [Compound 021, 4-(2-{5-[3-(3-Fluoro-phenyl)-propionyl]-2-methyl-phenylamino}-oxazol-5-yl)-benzonitrile] | ≤ 1000 |  | < 1000 |
| Cc1ccc(NCC(=O)c2ccc(F)cc2)cc1Nc1ncc(-c2ccc(C#N)cc2)o1 [Compound 027, 4-(2-{5-[2-(4-Fluoro-phenyl)-2-oxo-ethylamino]-2-methyl-phenylamino}-oxazol-5-yl)-benzonitrile] |  | < 1000 |  |
| N#Cc1ccc(C(=O)CNc2ccc(Cl)c(Nc3ncc(-c4ccc(C#N)cc4)o3)c2)cc1 [Compound 028, 4-(2-{5-[2-(4-Cyano-phenyl)-2-oxo-ethylamino]-2-chloro-phenylamino}-oxazol-5-yl)-benzonitrile] |  | < 1000 | < 1000 |
| Cc1ccc(CNC(=O)c2ccccc2)cc1Nc1ncc(-c2ccncc2)o1 [Compound 029, N-[4-Methyl-3-(5-pyridin-4-yl-oxazol-2-ylamino)-benzyl]-benzamide] |  | < 1000 |  |
| Cc1ccc(N(C)CC(=O)c2ccccc2)cc1Nc1ncc(-c2ccncc2)o1 [Compound 030, 2-{Methyl-[4-methyl-3-(5-pyridin-4-yl-oxazol-2-ylamino)-phenyl]-amino}-1-phenyl-ethanone] | ≤ 1000 | < 1000 | < 1000 |
